The text below walks through data of article doi:10.1101/760967.

Chains of the proteins cited; added tags and fusions are not shown.
UniProt Q14671: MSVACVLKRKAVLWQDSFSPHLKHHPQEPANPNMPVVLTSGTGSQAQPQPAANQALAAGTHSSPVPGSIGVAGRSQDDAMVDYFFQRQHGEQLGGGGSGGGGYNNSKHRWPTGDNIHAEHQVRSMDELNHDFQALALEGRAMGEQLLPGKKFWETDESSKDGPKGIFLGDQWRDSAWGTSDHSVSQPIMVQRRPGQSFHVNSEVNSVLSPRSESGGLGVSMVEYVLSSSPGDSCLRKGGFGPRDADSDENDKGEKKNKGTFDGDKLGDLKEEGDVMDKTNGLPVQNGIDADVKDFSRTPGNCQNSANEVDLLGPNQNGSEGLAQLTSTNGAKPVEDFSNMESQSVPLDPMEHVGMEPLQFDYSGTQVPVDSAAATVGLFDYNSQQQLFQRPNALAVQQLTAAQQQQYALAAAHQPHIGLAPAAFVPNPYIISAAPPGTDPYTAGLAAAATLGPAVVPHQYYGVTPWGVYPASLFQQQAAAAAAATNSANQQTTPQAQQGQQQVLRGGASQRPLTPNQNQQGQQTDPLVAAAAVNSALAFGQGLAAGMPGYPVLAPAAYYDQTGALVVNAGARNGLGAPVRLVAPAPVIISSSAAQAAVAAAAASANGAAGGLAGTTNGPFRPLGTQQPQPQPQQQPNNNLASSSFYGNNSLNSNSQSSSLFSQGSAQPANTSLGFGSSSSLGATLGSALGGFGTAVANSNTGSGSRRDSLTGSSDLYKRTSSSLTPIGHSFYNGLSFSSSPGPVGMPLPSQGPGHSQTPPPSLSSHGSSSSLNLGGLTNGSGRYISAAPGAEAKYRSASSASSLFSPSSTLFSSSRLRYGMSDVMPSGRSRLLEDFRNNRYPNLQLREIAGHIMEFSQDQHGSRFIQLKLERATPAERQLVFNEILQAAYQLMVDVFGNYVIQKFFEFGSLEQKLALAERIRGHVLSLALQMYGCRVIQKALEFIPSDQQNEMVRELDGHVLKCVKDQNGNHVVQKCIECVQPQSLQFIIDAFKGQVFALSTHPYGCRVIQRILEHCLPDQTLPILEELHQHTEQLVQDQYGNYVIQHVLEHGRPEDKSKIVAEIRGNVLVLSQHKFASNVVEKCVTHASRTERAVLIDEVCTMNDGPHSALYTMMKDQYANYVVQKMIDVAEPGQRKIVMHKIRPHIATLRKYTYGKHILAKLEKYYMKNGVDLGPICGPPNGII
UniProt Q8TB72: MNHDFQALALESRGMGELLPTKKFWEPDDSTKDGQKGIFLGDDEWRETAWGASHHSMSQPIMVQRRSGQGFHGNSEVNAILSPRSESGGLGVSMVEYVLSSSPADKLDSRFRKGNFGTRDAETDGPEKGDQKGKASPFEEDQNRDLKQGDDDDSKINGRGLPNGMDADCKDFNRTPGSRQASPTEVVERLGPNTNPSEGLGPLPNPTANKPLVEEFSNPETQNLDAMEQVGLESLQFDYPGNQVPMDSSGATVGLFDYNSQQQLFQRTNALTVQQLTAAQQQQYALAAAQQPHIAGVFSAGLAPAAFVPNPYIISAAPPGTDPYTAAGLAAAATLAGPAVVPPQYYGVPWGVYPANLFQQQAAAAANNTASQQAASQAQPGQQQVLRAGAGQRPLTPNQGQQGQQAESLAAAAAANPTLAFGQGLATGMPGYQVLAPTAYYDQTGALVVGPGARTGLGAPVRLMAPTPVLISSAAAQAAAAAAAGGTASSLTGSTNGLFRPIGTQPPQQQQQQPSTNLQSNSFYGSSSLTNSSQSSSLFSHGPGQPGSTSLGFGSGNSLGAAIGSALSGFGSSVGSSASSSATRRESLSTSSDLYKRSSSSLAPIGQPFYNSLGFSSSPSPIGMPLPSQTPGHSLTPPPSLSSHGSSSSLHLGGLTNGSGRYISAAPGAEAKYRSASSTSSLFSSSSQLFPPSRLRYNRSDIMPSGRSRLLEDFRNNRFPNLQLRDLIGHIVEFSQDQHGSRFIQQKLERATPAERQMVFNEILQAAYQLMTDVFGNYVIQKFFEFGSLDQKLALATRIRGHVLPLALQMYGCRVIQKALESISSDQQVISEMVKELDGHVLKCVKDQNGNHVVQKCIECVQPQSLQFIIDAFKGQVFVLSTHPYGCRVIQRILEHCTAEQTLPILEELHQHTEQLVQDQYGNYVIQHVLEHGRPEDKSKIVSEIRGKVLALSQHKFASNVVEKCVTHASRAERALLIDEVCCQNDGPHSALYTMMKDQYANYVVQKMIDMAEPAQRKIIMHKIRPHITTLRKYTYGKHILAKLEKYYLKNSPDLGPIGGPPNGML
UniProt P35637: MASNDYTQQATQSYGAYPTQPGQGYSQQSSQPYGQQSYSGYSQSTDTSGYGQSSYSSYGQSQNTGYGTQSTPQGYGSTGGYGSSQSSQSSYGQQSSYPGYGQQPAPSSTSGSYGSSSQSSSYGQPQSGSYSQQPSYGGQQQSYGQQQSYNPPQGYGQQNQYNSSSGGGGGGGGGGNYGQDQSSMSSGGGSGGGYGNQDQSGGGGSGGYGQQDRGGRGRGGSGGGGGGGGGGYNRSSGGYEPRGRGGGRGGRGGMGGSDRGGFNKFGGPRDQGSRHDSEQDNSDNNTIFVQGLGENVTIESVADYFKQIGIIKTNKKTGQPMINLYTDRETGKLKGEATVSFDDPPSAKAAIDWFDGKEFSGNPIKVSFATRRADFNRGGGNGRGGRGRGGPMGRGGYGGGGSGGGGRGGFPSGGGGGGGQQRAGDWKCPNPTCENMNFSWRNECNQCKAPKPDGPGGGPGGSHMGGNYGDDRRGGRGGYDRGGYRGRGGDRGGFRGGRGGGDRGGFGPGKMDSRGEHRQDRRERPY
UniProt P51114: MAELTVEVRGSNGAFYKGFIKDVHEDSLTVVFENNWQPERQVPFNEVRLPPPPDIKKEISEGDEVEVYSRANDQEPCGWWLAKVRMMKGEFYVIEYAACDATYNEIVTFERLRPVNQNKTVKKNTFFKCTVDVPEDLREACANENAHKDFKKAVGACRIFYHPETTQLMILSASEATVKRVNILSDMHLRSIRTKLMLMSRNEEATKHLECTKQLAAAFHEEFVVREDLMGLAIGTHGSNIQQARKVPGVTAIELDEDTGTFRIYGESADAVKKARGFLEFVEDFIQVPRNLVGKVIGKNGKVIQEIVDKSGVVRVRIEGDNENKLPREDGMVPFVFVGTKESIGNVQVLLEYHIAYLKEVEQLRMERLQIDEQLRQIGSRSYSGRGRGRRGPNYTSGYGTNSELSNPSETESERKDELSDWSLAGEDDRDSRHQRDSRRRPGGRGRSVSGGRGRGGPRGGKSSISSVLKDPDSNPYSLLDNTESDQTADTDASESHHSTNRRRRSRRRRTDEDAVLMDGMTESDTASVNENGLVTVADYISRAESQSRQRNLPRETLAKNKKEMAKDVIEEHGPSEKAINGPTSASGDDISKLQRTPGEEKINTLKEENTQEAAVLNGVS
UniProt P51116: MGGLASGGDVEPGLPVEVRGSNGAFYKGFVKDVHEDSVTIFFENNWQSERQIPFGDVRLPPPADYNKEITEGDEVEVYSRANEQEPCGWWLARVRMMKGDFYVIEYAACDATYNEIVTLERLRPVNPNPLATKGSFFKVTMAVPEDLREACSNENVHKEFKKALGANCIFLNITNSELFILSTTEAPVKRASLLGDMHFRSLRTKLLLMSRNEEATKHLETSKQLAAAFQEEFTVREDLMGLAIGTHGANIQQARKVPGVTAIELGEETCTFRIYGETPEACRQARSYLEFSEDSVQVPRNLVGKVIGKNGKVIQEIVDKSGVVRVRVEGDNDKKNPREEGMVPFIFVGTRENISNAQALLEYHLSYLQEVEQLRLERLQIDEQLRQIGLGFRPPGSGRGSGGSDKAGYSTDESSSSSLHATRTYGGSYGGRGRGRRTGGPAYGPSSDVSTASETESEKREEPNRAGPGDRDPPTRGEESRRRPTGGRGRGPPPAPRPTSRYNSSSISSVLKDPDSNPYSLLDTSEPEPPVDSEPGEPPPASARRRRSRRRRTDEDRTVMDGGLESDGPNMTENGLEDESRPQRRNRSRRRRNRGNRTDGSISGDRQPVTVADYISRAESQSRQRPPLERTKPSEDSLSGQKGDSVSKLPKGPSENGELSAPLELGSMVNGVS
UniProt O00425: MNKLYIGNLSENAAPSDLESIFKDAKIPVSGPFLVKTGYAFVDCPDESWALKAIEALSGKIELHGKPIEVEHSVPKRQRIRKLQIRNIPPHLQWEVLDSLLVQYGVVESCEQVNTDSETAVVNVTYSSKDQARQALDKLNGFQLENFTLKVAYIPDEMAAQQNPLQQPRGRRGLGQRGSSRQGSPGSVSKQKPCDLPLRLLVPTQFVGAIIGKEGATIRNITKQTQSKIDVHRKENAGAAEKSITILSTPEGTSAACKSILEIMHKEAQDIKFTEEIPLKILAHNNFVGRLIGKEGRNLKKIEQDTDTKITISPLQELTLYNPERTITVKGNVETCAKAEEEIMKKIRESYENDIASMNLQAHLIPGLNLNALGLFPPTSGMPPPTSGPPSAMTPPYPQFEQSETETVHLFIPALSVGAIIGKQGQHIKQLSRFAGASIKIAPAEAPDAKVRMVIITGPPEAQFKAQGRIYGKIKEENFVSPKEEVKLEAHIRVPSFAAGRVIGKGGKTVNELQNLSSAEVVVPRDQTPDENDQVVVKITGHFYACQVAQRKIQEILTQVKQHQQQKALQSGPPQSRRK
UniProt P11940: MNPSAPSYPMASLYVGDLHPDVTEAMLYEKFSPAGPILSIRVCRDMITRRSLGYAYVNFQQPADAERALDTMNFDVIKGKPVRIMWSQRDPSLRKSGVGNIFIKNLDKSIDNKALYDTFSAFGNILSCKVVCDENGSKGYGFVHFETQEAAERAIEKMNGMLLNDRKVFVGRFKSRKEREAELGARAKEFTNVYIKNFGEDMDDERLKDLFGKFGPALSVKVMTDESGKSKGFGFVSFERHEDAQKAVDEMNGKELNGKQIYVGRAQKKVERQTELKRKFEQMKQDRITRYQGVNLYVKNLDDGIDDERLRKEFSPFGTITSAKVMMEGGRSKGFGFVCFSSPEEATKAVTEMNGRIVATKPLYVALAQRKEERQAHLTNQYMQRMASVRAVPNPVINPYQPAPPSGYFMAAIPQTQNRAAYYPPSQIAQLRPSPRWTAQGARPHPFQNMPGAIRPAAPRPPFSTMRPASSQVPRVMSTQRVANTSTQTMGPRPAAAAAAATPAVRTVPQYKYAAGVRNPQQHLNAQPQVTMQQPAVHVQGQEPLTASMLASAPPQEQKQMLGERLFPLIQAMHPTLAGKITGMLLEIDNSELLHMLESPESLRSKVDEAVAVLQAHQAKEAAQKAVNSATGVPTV
UniProt P26599: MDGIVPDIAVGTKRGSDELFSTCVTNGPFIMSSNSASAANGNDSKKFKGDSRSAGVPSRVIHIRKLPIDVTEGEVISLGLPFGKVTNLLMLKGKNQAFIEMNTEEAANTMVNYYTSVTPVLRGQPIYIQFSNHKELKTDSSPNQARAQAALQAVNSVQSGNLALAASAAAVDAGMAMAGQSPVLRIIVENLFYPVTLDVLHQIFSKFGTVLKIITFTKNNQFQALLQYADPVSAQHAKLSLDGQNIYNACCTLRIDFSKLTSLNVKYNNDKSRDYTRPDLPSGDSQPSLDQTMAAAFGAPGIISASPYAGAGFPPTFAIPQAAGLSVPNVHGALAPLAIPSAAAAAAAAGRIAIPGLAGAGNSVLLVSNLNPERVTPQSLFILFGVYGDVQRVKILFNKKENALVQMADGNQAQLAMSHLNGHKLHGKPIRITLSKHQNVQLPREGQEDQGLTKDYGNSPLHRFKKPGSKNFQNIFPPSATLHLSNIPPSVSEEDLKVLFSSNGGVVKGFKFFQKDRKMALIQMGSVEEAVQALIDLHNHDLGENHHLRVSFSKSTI
UniProt Q07955: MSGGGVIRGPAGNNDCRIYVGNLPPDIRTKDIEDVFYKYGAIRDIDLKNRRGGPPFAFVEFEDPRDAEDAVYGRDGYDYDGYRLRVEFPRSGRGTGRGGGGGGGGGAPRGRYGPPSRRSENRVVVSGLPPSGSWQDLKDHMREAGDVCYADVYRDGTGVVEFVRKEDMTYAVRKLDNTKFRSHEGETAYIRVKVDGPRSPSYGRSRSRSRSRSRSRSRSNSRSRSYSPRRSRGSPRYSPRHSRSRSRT
UniProt P67809: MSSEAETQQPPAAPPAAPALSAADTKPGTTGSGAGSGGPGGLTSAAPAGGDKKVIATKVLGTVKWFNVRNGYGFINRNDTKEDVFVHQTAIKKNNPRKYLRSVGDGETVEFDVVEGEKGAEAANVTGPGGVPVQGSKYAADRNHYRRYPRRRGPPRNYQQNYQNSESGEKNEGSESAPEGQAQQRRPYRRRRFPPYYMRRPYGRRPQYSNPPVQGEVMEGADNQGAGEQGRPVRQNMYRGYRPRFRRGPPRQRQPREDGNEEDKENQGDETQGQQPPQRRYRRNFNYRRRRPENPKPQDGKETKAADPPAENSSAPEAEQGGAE

The target in assay [1] is PUM1 (human (endogenous in TCam-2)) (UniProt Q14671). Kind of assay: affinity purification with mass spectrometry.
Assay [2] addresses PUM2 (human (endogenous in TCam-2)) (UniProt Q8TB72). The assay is described as follows: affinity purification with mass spectrometry.

These are yes or no findings as the source states them, for the method shown. Binding seen in cells or lysates may run through a third protein. These calls come from enrichment with a bait or labelling near it, and not all partners need be listed.

Take CPSF6 (from UniProt Q16630 1-551): the binding entry in assay [1] was “binds”.
Same read-out and setting: the same measure for FUS (from UniProt P35637 1-526): “binds”.
As for FXR1 (from UniProt P51114 1-621), the binding entry in assay [2] and in assay [1] was “binds” throughout.
Turning to FXR2 (from UniProt P51116 1-673), the binding entry in assay [2] and in assay [1] was “binds” throughout.
Take G3BP1 (from UniProt Q13283 1-466): the binding entry in assay [2] is reported as “binds”.
As for HNRNPK (from UniProt P61978 1-463), the binding result in assay [1] is on record as “binds”.
Still for that read-out and setting: the same measure for IGF2BP3 (from UniProt O00425 1-579): “binds”.
On to PABPC1 (from UniProt P11940 1-636), for which the binding result in assay [2] and in assay [1] was “binds” throughout.
With PTBP1 (from UniProt P26599 1-557), the binding result in assay [2] is recorded as “binds”.
Same read-out and setting: the same measure for SRSF1 (from UniProt Q07955 1-248): “binds”.
Regarding YBX1 (from UniProt P67809 1-324), the binding entry in assay [1] is “binds”.

B1: G3BP2 (protein, UniProt Q9UN86 1-482)
chain: MVMEKPSPLLVGREFVRQYYTLLNKAPEYLHRFYGRNSSYVHGGVDASGKPQEAVYGQNDIHHKVLSLNFSECHTKIRHVDAHATLSDGVVVQVMGLLSNSGQPERKFMQTFVLAPEGSVPNKFYVHNDMFRYEDEVFGDSEPELDEESEDEVEEEQEERQPSPEPVQENANSGYYEAHPVTNGIEEPLEESSHEPEPEPESETKTEELKPQVEEKNLEELEEKSTTPPPAEPVSLPQEPPKAFSWASVTSKNLPPSGTVSSSGIPPHVKAPVSQPRVEAKPEVQSQPPRVREQRPRERPGFPPRGPRPGRGDMEQNDSDNRRIIRYPDSHQLFVGNLPHDIDENELKEFFMSFGNVVELRINTKGVGGKLPNFGFVVFDDSEPVQRILIAKPIMFRGEVRLNVEEKKTRAARERETRGGGDDRRDIRRNDRGPGGPRGIVGGGMMRDRDGRGPPPRGGMAQKLGSGRGTGQMEGRFTGQRR
As for B1, the binding entry in assay [2] is “binds”.

B2: LIN28A (protein, UniProt Q9H9Z2 1-209)
chain: MGSVSNQQFAGGCAKAAEEAPEEAPEDAARAADEPQLLHGAGICKWFNVRMGFGFLSMTARAGVALDPPVDVFVHQSKLHMEGFRSLKEGEAVEFTFKKSAKGLESIRVTGPGGVFCIGSERRPKGKSMQKRRSKGDRCYNCGGLDHHAKECKLPPQPKKCHFCQSISHMVASCPLKAQQGPSAQGKPTYFREEEEEIHSPTLLPEAQN
For the molecule B2, the binding result in assay [1] is listed as “binds”.

B3: MATR3 (protein, UniProt P43243 1-847)
chain: MSKSFQQSSLSRDSQGHGRDLSAAGIGLLAAATQSLSMPASLGRMNQGTARLASLMNLGMSSSLNQQGAHSALSSASTSSHNLQSIFNIGSRGPLPLSSQHRGDADQASNILASFGLSARDLDELSRYPEDKITPENLPQILLQLKRRRTEEGPTLSYGRDGRSATREPPYRVPRDDWEEKRHFRRDSFDDRGPSLNPVLDYDHGSRSQESGYYDRMDYEDDRLRDGERCRDDSFFGETSHNYHKFDSEYERMGRGPGPLQERSLFEKKRGAPPSSNIEDFHGLLPKGYPHLCSICDLPVHSNKEWSQHINGASHSRRCQLLLEIYPEWNPDNDTGHTMGDPFMLQQSTNPAPGILGPPPPSFHLGGPAVGPRGNLGAGNGNLQGPRHMQKGRVETSRVVHIMDFQRGKNLRYQLLQLVEPFGVISNHLILNKINEAFIEMATTEDAQAAVDYYTTTPALVFGKPVRVHLSQKYKRIKKPEGKPDQKFDQKQELGRVIHLSNLPHSGYSDSAVLKLAEPYGKIKNYILMRMKSQAFIEMETREDAMAMVDHCLKKALWFQGRCVKVDLSEKYKKLVLRIPNRGIDLLKKDKSRKRSYSPDGKESPSDKKSKTDGSQKTESSTEGKEQEEKSGEDGEKDTKDDQTEQEPNMLLESEDELLVDEEEAAALLESGSSVGDETDLANLGDVASDGKKEPSDKAVKKDGSASAAAKKKLKKVDKIEELDQENEAALENGIKNEENTEPGAESSENADDPNKDTSENADGQSDENKDDYTIPDEYRIGPYQPNVPVGIDYVIPKTGFYCKLCSLFYTNEEVAKNTHCSSLPHYQKLKKFLNKLAEERRQKKET
On to B3, for which the binding entry in assay [2] and in assay [1] was “binds” throughout.

B4: CPSF7 (protein, UniProt Q8N684 1-471)
chain: MSEGVDLIDIYADEEFNQDPEFNNTDQIDLYDDVLTATSQPSDDRSSSTEPPPPVRQEPSPKPNNKTPAILYTYSGLRNRRAAVYVGSFSWWTTDQQLIQVIRSIGVYDVVELKFAENRANGQSKGYAEVVVASENSVHKLLELLPGKVLNGEKVDVRPATRQNLSQFEAQARKRECVRVPRGGIPPRAHSRDSSDSADGRATPSENLVPSSARVDKPPSVLPYFNRPPSALPLMGLPPPPIPPPPPLSSSFGVPPPPPGIHYQHLMPPPPRLPPHLAVPPPGAIPPALHLNPAFFPPPNATVGPPPDTYMKASAPYNHHGSRDSGPPPSTVSEAEFEDIMKRNRAISSSAISKAVSGASAGDYSDAIETLLTAIAVIKQSRVANDERCRVLISSLKDCLHGIEAKSYSVGASGSSSRKRHRSRERSPSRSRESSRRHRDLLHNEDRHDDYFQERNREHERHRDRERDRHH
Turning to B4, the binding result in assay [1] is listed as “binds”.

B5: SRSF7 (protein, UniProt Q16629 1-238)
chain: MSRYGRYGGETKVYVGNLGTGAGKGELERAFSYYGPLRTVWIARNPPGFAFVEFEDPRDAEDAVRGLDGKVICGSRVRVELSTGMPRRSRFDRPPARRPFDPNDRCYECGEKGHYAYDCHRYSRRRRSRSRSRSHSRSRGRRYSRSRSRSRGRRSRSASPRRSRSISLRRSRSASLRRSRSGSIKGSRYFQSPSRSRSRSRSISRPRSSRSKSRSPSPKRSRSPSGSPRRSASPERMD
For B5, in assay [2], the binding entry is reported as “binds”.
